Some of these results come from one statement about several compounds together.
Tests used:
Type in all cases: in vivo
[1] = test system: Small Brown Planthopper (Laodelphax striatellus); experiment: Insecticidal test on small brown planthopper (dipped rice seedlings, 3rd-instar larvae); details: rice seedlings dipped 30 seconds, 8 days after inoculation
[2] = test system: Diamondback moth (Plutella xylostella); experiment: Insecticidal test on diamondback moth (dip treatment of Chinese cabbage seedlings with laid eggs); details: dip about 30 seconds, 6 days after treatment, 25° C.
[3] = test system: Western Flower Thrips (Frankliniella occidentalis); experiment: Insecticidal test on western flower thrips (kidney bean leaf pieces, hatched larvae); details: 4 days after the treatment

O=C(Nc1ccc(F)cc1)C1=C(O)CN(c2ccc(-c3ccc(C(F)(F)F)cc3)nc2)NC1=O [1-280]
A (the mortality rate is 100%): insecticidal efficacy (corrected mortality rate) against small brown planthopper ([1]; 50 ppm) | insecticidal efficacy (corrected mortality rate) against small brown planthopper ([1]; 500 ppm) | insecticidal efficacy (corrected mortality rate) against diamondback moth ([2]; 50 ppm) | insecticidal efficacy (corrected mortality rate) against diamondback moth ([2]; 500 ppm) | insecticidal efficacy (corrected mortality rate) against western flower thrips ([3]; 500 ppm)

CCC(C)OC(=O)N1C(=O)C(C(=O)Nc2ccc(F)cc2)=C(O)CN1c1ccc(C(F)(F)F)nc1 (centres unmarked) [3-290]
A (the mortality rate is 100%): insecticidal efficacy (corrected mortality rate) against small brown planthopper ([1]; 50 ppm) | insecticidal efficacy (corrected mortality rate) against small brown planthopper ([1]; 500 ppm) | insecticidal efficacy (corrected mortality rate) against diamondback moth ([2]; 50 ppm) | insecticidal efficacy (corrected mortality rate) against diamondback moth ([2]; 500 ppm) | insecticidal efficacy (corrected mortality rate) against western flower thrips ([3]; 50 ppm) | insecticidal efficacy (corrected mortality rate) against western flower thrips ([3]; 500 ppm)

COC(=O)N1C(=O)C(C(=O)Nc2ccc(F)cn2)=C(O)CN1c1ccc(Br)nc1 [3-117]
A (the mortality rate is 100%): insecticidal efficacy (corrected mortality rate) against small brown planthopper ([1]; 50 ppm) | insecticidal efficacy (corrected mortality rate) against small brown planthopper ([1]; 500 ppm) | insecticidal efficacy (corrected mortality rate) against diamondback moth ([2]; 50 ppm) | insecticidal efficacy (corrected mortality rate) against diamondback moth ([2]; 500 ppm) | insecticidal efficacy (corrected mortality rate) against western flower thrips ([3]; 50 ppm) | insecticidal efficacy (corrected mortality rate) against western flower thrips ([3]; 500 ppm)

O=C(Nc1ccc(F)cc1)C1=C(O)CN(c2ncc(Br)cn2)NC1=O [1-143]
A (the mortality rate is 100%): insecticidal efficacy (corrected mortality rate) against small brown planthopper ([1]; 500 ppm) | insecticidal efficacy (corrected mortality rate) against diamondback moth ([2]; 500 ppm) | insecticidal efficacy (corrected mortality rate) against western flower thrips ([3]; 500 ppm)

COc1cc(N2CC(O)=C(C(=O)Nc3ccc(C#N)cc3)C(=O)N2)ccc1C#N [1-19]
A (the mortality rate is 100%): insecticidal efficacy (corrected mortality rate) against small brown planthopper ([1]; 50 ppm) | insecticidal efficacy (corrected mortality rate) against small brown planthopper ([1]; 500 ppm) | insecticidal efficacy (corrected mortality rate) against diamondback moth ([2]; 500 ppm) | insecticidal efficacy (corrected mortality rate) against western flower thrips ([3]; 50 ppm) | insecticidal efficacy (corrected mortality rate) against western flower thrips ([3]; 500 ppm)

N#Cc1ccc(N2CC(O)=C(C(=O)Nc3ccc(C(F)(F)F)cc3)C(=O)N2)cn1 [1-86]
A (the mortality rate is 100%): insecticidal efficacy (corrected mortality rate) against small brown planthopper ([1]; 500 ppm) | insecticidal efficacy (corrected mortality rate) against diamondback moth ([2]; 500 ppm) | insecticidal efficacy (corrected mortality rate) against western flower thrips ([3]; 500 ppm)

COC(=O)N1C(=O)C(C(=O)Nc2cccc(C#N)c2)=C(O)CN1c1cnc(C#N)c(Cl)c1 [3-476]
A (the mortality rate is 100%): insecticidal efficacy (corrected mortality rate) against small brown planthopper ([1]; 50 ppm) | insecticidal efficacy (corrected mortality rate) against small brown planthopper ([1]; 500 ppm) | insecticidal efficacy (corrected mortality rate) against diamondback moth ([2]; 50 ppm) | insecticidal efficacy (corrected mortality rate) against diamondback moth ([2]; 500 ppm) | insecticidal efficacy (corrected mortality rate) against western flower thrips ([3]; 50 ppm) | insecticidal efficacy (corrected mortality rate) against western flower thrips ([3]; 500 ppm)

COc1cc(NC(=O)C2=C(O)CN(c3ccc(C#N)nc3)NC2=O)ccc1Cl [1-209]
A (the mortality rate is 100%): insecticidal efficacy (corrected mortality rate) against small brown planthopper ([1]; 50 ppm) | insecticidal efficacy (corrected mortality rate) against small brown planthopper ([1]; 500 ppm) | insecticidal efficacy (corrected mortality rate) against diamondback moth ([2]; 50 ppm) | insecticidal efficacy (corrected mortality rate) against diamondback moth ([2]; 500 ppm) | insecticidal efficacy (corrected mortality rate) against western flower thrips ([3]; 50 ppm) | insecticidal efficacy (corrected mortality rate) against western flower thrips ([3]; 500 ppm)

COCCOC(=O)N1C(=O)C(C(=O)Nc2ccc(F)cc2)=C(O)CN1c1ccc(C#N)cc1 [3-354]
A (the mortality rate is 100%): insecticidal efficacy (corrected mortality rate) against small brown planthopper ([1]; 50 ppm) | insecticidal efficacy (corrected mortality rate) against small brown planthopper ([1]; 500 ppm) | insecticidal efficacy (corrected mortality rate) against diamondback moth ([2]; 50 ppm) | insecticidal efficacy (corrected mortality rate) against diamondback moth ([2]; 500 ppm) | insecticidal efficacy (corrected mortality rate) against western flower thrips ([3]; 50 ppm) | insecticidal efficacy (corrected mortality rate) against western flower thrips ([3]; 500 ppm)

COC(=O)N1C(=O)C(C(=O)Nc2ccccc2C#N)=C(O)CN1c1cnc(C#N)c(Cl)c1 [3-477]
A (the mortality rate is 100%): insecticidal efficacy (corrected mortality rate) against small brown planthopper ([1]; 50 ppm) | insecticidal efficacy (corrected mortality rate) against small brown planthopper ([1]; 500 ppm) | insecticidal efficacy (corrected mortality rate) against diamondback moth ([2]; 500 ppm) | insecticidal efficacy (corrected mortality rate) against western flower thrips ([3]; 500 ppm)

COC(=O)N1C(=O)C(C(=O)Nc2ccc(F)cc2)=C(O)CN1c1cnc2c(F)cccc2c1 [3-241]
A (the mortality rate is 100%): insecticidal efficacy (corrected mortality rate) against small brown planthopper ([1]; 50 ppm) | insecticidal efficacy (corrected mortality rate) against small brown planthopper ([1]; 500 ppm) | insecticidal efficacy (corrected mortality rate) against diamondback moth ([2]; 50 ppm) | insecticidal efficacy (corrected mortality rate) against diamondback moth ([2]; 500 ppm) | insecticidal efficacy (corrected mortality rate) against western flower thrips ([3]; 500 ppm)

O=C(Nc1ccc(F)c(F)c1)C1=C(O)CN(c2ccc(Cl)cc2)NC1=O [1-16]
A (the mortality rate is 100%): insecticidal efficacy (corrected mortality rate) against small brown planthopper ([1]; 50 ppm) | insecticidal efficacy (corrected mortality rate) against small brown planthopper ([1]; 500 ppm) | insecticidal efficacy (corrected mortality rate) against diamondback moth ([2]; 50 ppm) | insecticidal efficacy (corrected mortality rate) against diamondback moth ([2]; 500 ppm) | insecticidal efficacy (corrected mortality rate) against western flower thrips ([3]; 50 ppm) | insecticidal efficacy (corrected mortality rate) against western flower thrips ([3]; 500 ppm)

COCCOC(=O)N1C(=O)C(C(=S)Nc2ccc(F)cc2)=C([O-])CN1c1ccc(C#N)nc1.[K+] [4-145]
A (the mortality rate is 100%): insecticidal efficacy (corrected mortality rate) against small brown planthopper ([1]; 50 ppm) | insecticidal efficacy (corrected mortality rate) against small brown planthopper ([1]; 500 ppm) | insecticidal efficacy (corrected mortality rate) against diamondback moth ([2]; 50 ppm) | insecticidal efficacy (corrected mortality rate) against diamondback moth ([2]; 500 ppm) | insecticidal efficacy (corrected mortality rate) against western flower thrips ([3]; 50 ppm) | insecticidal efficacy (corrected mortality rate) against western flower thrips ([3]; 500 ppm)

Cc1cc(NC(=O)C2=C(O)CN(c3ccc(C#N)c(Cl)c3)NC2=O)ccc1F [1-168]
A (the mortality rate is 100%): insecticidal efficacy (corrected mortality rate) against small brown planthopper ([1]; 50 ppm) | insecticidal efficacy (corrected mortality rate) against small brown planthopper ([1]; 500 ppm) | insecticidal efficacy (corrected mortality rate) against diamondback moth ([2]; 50 ppm) | insecticidal efficacy (corrected mortality rate) against diamondback moth ([2]; 500 ppm) | insecticidal efficacy (corrected mortality rate) against western flower thrips ([3]; 50 ppm) | insecticidal efficacy (corrected mortality rate) against western flower thrips ([3]; 500 ppm)

COC(=O)N1C(=O)C(C(=O)Nc2ccc(F)c(C)c2)=C(O)CN1c1ccc(C#N)cc1 [3-229]
A (the mortality rate is 100%): insecticidal efficacy (corrected mortality rate) against small brown planthopper ([1]; 50 ppm) | insecticidal efficacy (corrected mortality rate) against small brown planthopper ([1]; 500 ppm) | insecticidal efficacy (corrected mortality rate) against diamondback moth ([2]; 500 ppm) | insecticidal efficacy (corrected mortality rate) against western flower thrips ([3]; 50 ppm) | insecticidal efficacy (corrected mortality rate) against western flower thrips ([3]; 500 ppm)

COC(=O)N1C(=O)C(C(=O)Nc2ccc(Cl)cc2C)=C(O)CN1c1ccc(C#N)nc1 [3-431]
A (the mortality rate is 100%): insecticidal efficacy (corrected mortality rate) against small brown planthopper ([1]; 50 ppm) | insecticidal efficacy (corrected mortality rate) against small brown planthopper ([1]; 500 ppm) | insecticidal efficacy (corrected mortality rate) against diamondback moth ([2]; 500 ppm) | insecticidal efficacy (corrected mortality rate) against western flower thrips ([3]; 50 ppm) | insecticidal efficacy (corrected mortality rate) against western flower thrips ([3]; 500 ppm)

COC(=O)N1C(=O)C(C(=O)Nc2ccc(C)cn2)=C(O)CN1c1ccc(Br)nc1 [3-514]
A (the mortality rate is 100%): insecticidal efficacy (corrected mortality rate) against small brown planthopper ([1]; 50 ppm) | insecticidal efficacy (corrected mortality rate) against small brown planthopper ([1]; 500 ppm) | insecticidal efficacy (corrected mortality rate) against diamondback moth ([2]; 500 ppm) | insecticidal efficacy (corrected mortality rate) against western flower thrips ([3]; 500 ppm)

COc1cc(NC(=O)C2=C(O)CN(c3cnc(C#N)c(Cl)c3)NC2=O)ccn1 [1-220]
A (the mortality rate is 100%): insecticidal efficacy (corrected mortality rate) against small brown planthopper ([1]; 50 ppm) | insecticidal efficacy (corrected mortality rate) against small brown planthopper ([1]; 500 ppm) | insecticidal efficacy (corrected mortality rate) against diamondback moth ([2]; 50 ppm) | insecticidal efficacy (corrected mortality rate) against diamondback moth ([2]; 500 ppm) | insecticidal efficacy (corrected mortality rate) against western flower thrips ([3]; 50 ppm) | insecticidal efficacy (corrected mortality rate) against western flower thrips ([3]; 500 ppm)

COC(=O)N1C(=O)C(C(=O)Nc2cccc(C)n2)=C(O)CN1c1ccc(C(F)(F)F)nc1 [3-139]
A (the mortality rate is 100%): insecticidal efficacy (corrected mortality rate) against small brown planthopper ([1]; 50 ppm) | insecticidal efficacy (corrected mortality rate) against small brown planthopper ([1]; 500 ppm) | insecticidal efficacy (corrected mortality rate) against diamondback moth ([2]; 500 ppm) | insecticidal efficacy (corrected mortality rate) against western flower thrips ([3]; 50 ppm) | insecticidal efficacy (corrected mortality rate) against western flower thrips ([3]; 500 ppm)

— patent US20250074896A1, “ARYLTETRAHYDROPYRIDAZINE DERIVATIVE OR SALT THEREOF AND INSECTICIDAL AGENT CONTAINING THE COMPOUND AND METHOD FOR USING SAME” (NIHON NOHYAKU CO., LTD., priority 2021, published 2025)
